# Source: the supplement of paper PMC8728848
# The list shows a part of the results.
# B1: GS7807Q-bfa-507-19-507 (Bacteroides fragilis) (protein)
# chain: ASCNKFDDLNTNPDAATKVTAPMLATKLILNITQQGSAKNFVYHSMLSKQIAWSENASDEQYNLFGRTDFDGYTILTNCQKMVDAANEGDKDSYAALAKFMKAYKLFYKSLEVGDIPYSDALKGEEGVQKPKYDTQKEVMRQVLEDLEEAYTLFSSGSDFDGDPIFGGDTENWKKTVVAFELKVLTHLCKKDTDADLKVKERFARLVSSGSLMTSNADNFQLVYSNKAGQLYPFYYTQNKHSDYLMMSSVIIDNLKKFNDYRMFYYASPAKAQTDKGIKDSEWDAYLSIDPSDSYSNISVLYGKGEFCLANLRYTRVPEGEPLMRLSYAEQNFILAEGAVRGWISEDASTYYKKGIEASMNFIADNTPDKEEYTHGRTITQEYIQEYLAQPVIQLSGDKEKDLEMILLQRYLASFLQHPYDAYYDYRRTGYPVLPINPSTNLNTEKNKIPTRWMYPEAEFSYNPDNANEAVQRQYNGSDDVNKLMWILQ
# Assays:
# Experiment in all cases: glycan array binding signal (z-score within array); higher = stronger binding
# Details in all cases: glycan notation: IUPAC condensed, linker removed
# [1] = target: Fuc(a1-2)[GalNAc(a1-3)]Gal(b1-3)GlcNAc(b1-6)GalNAc
# In short: (§1)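 Glycan array data were curated from 3228 arrays in the Consortium for Functional Glycomics database and kept only where the protein sequence was available. Glycan names were converted to IUPAC-condensed notation, and columns mapping to the same glycan were averaged. The binding signal is a within-array Z-score, averaged across arrays of the same protein sequence at different concentrations or buffers and across linkers. Negative Z-scores can be read as non-binding.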
# [2] = target: Fuc(a1-2)[GalNAc(a1-3)]Gal(b1-4)Glc
# In short: as §1
# [3] = target: Fuc(a1-2)[GalNAc(a1-3)]Gal(b1-4)GlcNAc
# In short: as §1
# [4] = target: Fuc(a1-2)[GalNAc(a1-3)]Gal(b1-4)GlcNAc(b1-2)Man
# In short: as §1
# [5] = target: Fuc(a1-2)[GalNAc(a1-3)]Gal(b1-4)GlcNAc(b1-2)Man(a1-3)[Fuc(a1-2)[GalNAc(a1-3)]Gal(b1-4)GlcNAc(b1-2)Man(a1-6)]Man(b1-4)GlcNAc(b1-4)GlcNAc
# In short: as §1
# [6] = target: Fuc(a1-2)[GalNAc(a1-3)]Gal(b1-4)GlcNAc(b1-2)Man(a1-3)[Fuc(a1-2)[GalNAc(a1-3)]Gal(b1-4)GlcNAc(b1-2)Man(a1-6)]Man(b1-4)GlcNAc(b1-4)[Fuc(a1-6)]GlcNAc
# In short: as §1
# [7] = target: Fuc(a1-2)[GalNAc(a1-3)]Gal(b1-4)GlcNAc(b1-3)Gal(b1-4)GlcNAc
# In short: as §1
# [8] = target: Fuc(a1-2)[GalNAc(a1-3)]Gal(b1-4)GlcNAc(b1-3)Gal(b1-4)GlcNAc(b1-3)Gal(b1-4)GlcNAc
# In short: as §1
# [9] = target: Fuc(a1-2)[GalNAc(a1-3)]Gal(b1-4)GlcNAc(b1-3)GalNAc
# In short: as §1
# [10] = target: Fuc(a1-2)[GalNAc(a1-3)]Gal(b1-4)GlcNAc(b1-3)[Fuc(a1-2)[GalNAc(a1-3)]Gal(b1-4)GlcNAc(b1-6)]GalNAc
# In short: as §1
# [11] = target: Fuc(a1-2)[GalNAc(a1-3)]Gal(b1-4)GlcNAc(b1-6)GalNAc
# In short: as §1
# [12] = target: Fuc(a1-2)[GalNAc(a1-3)]Gal(b1-4)[Fuc(a1-3)]GlcNAc
# In short: as §1
# [13] = target: Fuc(a1-2)[GalNAc(a1-3)]Gal(b1-4)[Fuc(a1-3)]GlcNAc(b1-3)GalNAc
# In short: as §1
# [14] = target: Fuc(a1-2)[GalNAc(a1-4)]Gal(b1-4)GlcNAc
# In short: as §1
# [15] = target: Fuc(a1-2)[GalNAc(b1-3)]Gal
# In short: as §1
# Fuc(a1-3)GlcNAc = target: Fuc(a1-3)GlcNAc
# In short: as §1
# [16] = target: Fuc(a1-3)[Gal(b1-4)]Glc6S
# In short: as §1
# [17] = target: Fuc(a1-3)[Gal(b1-4)]GlcNAc
# In short: as §1
# [18] = target: Fuc(a1-3)[Gal(b1-4)]GlcNAc(b1-2)Man
# In short: as §1
# [19] = target: Fuc(a1-3)[Gal(b1-4)]GlcNAc(b1-2)Man(a1-3)[Fuc(a1-3)[Gal(b1-4)]GlcNAc(b1-2)Man(a1-6)]Man(b1-4)GlcNAc(b1-4)GlcNAc
# In short: as §1
# [20] = target: Fuc(a1-3)[Gal(b1-4)]GlcNAc(b1-2)Man(a1-3)[Fuc(a1-3)[Gal(b1-4)]GlcNAc(b1-2)Man(a1-6)]Man(b1-4)GlcNAc(b1-4)[Fuc(a1-6)]GlcNAc
# In short: as §1
# [21] = target: Fuc(a1-3)[Gal(b1-4)]GlcNAc(b1-3)Gal(b1-3)[Fuc(a1-4)]GlcNAc
# In short: as §1
# [22] = target: Fuc(a1-3)[Gal(b1-4)]GlcNAc(b1-3)Gal(b1-4)[Fuc(a1-3)]GlcNAc
# In short: as §1
# [23] = target: Fuc(a1-3)[Gal(b1-4)]GlcNAc(b1-3)Gal(b1-4)[Fuc(a1-3)]GlcNAc(b1-3)Gal(b1-4)[Fuc(a1-3)]GlcNAc
# In short: as §1
# [24] = target: Fuc(a1-3)[Gal(b1-4)]GlcNAc(b1-3)GalNAc
# In short: as §1
# [25] = target: Fuc(a1-3)[Gal(b1-4)]GlcNAc(b1-6)GalNAc
# In short: as §1
# [26] = target: Fuc(a1-3)[Gal(b1-4)]GlcNAc(b1-6)[Gal(b1-3)GlcNAc(b1-3)]Gal(b1-4)Glc
# In short: as §1
# [27] = target: Fuc(a1-3)[Gal(b1-4)]GlcNAc6S
# In short: as §1
# [28] = target: Fuc(a1-3)[Gal3S(b1-4)]Glc
# In short: as §1
# [29] = target: Fuc(a1-3)[Gal3S(b1-4)]GlcNAc
# In short: as §1
# [30] = target: Fuc(a1-3)[Gal3S(b1-4)]GlcNAc6S
# In short: as §1
# [31] = target: Fuc(a1-3)[GalNAc(b1-4)]GlcNAc
# In short: as §1
# [32] = target: Fuc(a1-3)[GalNAc(b1-4)]GlcNAc6S
# In short: as §1
# Fuc(a1-4)GlcNAc = target: Fuc(a1-4)GlcNAc
# In short: as §1
# Fuc(b1-3)GlcNAc = target: Fuc(b1-3)GlcNAc
# In short: as §1
# Gal(a1-2)Gal = target: Gal(a1-2)Gal
# In short: as §1
# Gal(a1-3)Gal = target: Gal(a1-3)Gal
# In short: as §1
binder,measurement,setting,value
B1,glycan array binding signal (z-score),[1],-0.083
same,glycan array binding signal (z-score),[2],-0.855
same,glycan array binding signal (z-score),[3],-0.557
same,glycan array binding signal (z-score),[4],-0.891
same,glycan array binding signal (z-score),[5],0.461
same,glycan array binding signal (z-score),[6],-0.243
same,glycan array binding signal (z-score),[7],-0.569
same,glycan array binding signal (z-score),[8],-0.64
same,glycan array binding signal (z-score),[9],-0.822
same,glycan array binding signal (z-score),[10],-0.373
same,glycan array binding signal (z-score),[11],-0.208
same,glycan array binding signal (z-score),[12],-0.603
same,glycan array binding signal (z-score),[13],1.49
same,glycan array binding signal (z-score),[14],-0.138
same,glycan array binding signal (z-score),[15],-0.189
same,glycan array binding signal (z-score),Fuc(a1-3)GlcNAc,-0.853
same,glycan array binding signal (z-score),[16],1.06
same,glycan array binding signal (z-score),[17],0.144
same,glycan array binding signal (z-score),[18],-0.188
same,glycan array binding signal (z-score),[19],-0.076
same,glycan array binding signal (z-score),[20],-0.03
same,glycan array binding signal (z-score),[21],-0.489
same,glycan array binding signal (z-score),[22],0.613
same,glycan array binding signal (z-score),[23],1.93
same,glycan array binding signal (z-score),[24],-0.452
same,glycan array binding signal (z-score),[25],-0.103
same,glycan array binding signal (z-score),[26],0.297
same,glycan array binding signal (z-score),[27],-1.03
same,glycan array binding signal (z-score),[28],0.132
same,glycan array binding signal (z-score),[29],-1.22
same,glycan array binding signal (z-score),[30],-0.657
same,glycan array binding signal (z-score),[31],0.797
same,glycan array binding signal (z-score),[32],2.06
same,glycan array binding signal (z-score),Fuc(a1-4)GlcNAc,-0.527
same,glycan array binding signal (z-score),Fuc(b1-3)GlcNAc,-0.712
same,glycan array binding signal (z-score),Gal(a1-2)Gal,-0.481
same,glycan array binding signal (z-score),Gal(a1-3)Gal,0.196

# For reference, some entries already given:
binder,measurement,setting,value
B1,glycan array binding signal (z-score),[32],2.06
same,glycan array binding signal (z-score),Fuc(a1-4)GlcNAc,-0.527
same,glycan array binding signal (z-score),Fuc(b1-3)GlcNAc,-0.712
